# This is one part of the list.
# Assays:
# Test in all cases: glycan array binding signal (z-score within array); higher = stronger binding
# Conditions in all cases: glycan notation: IUPAC condensed, linker removed
# [1] = molecular target: GlcNAc(b1-2)Gal(b1-3)GalNAc
# How it was run: (§1)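 Glycan array data came from 3228 arrays in the Consortium for Functional Glycomics database, and only arrays with an available protein sequence were kept. Glycan names were put into IUPAC-condensed notation, and columns mapping to the same glycan were averaged. The binding signal is a within-array Z-score, averaged across arrays of one protein sequence run at different concentrations or buffers and across linkers. A negative Z-score can be read as non-binding.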
# [2] = molecular target: GlcNAc(b1-2)Man(a1-3)[GlcNAc(b1-2)Man(a1-6)]Man(b1-4)GlcNAc(b1-4)GlcNAc
# How it was run: as §1
# [3] = molecular target: GlcNAc(b1-2)Man(a1-3)[GlcNAc(b1-2)Man(a1-6)]Man(b1-4)GlcNAc(b1-4)[Fuc(a1-6)]GlcNAc
# How it was run: as §1
# [4] = molecular target: GlcNAc(b1-2)Man(a1-3)[GlcNAc(b1-4)][GlcNAc(b1-2)Man(a1-6)]Man(b1-4)GlcNAc(b1-4)GlcNAc
# How it was run: as §1
# [5] = molecular target: GlcNAc(b1-2)Man(a1-3)[GlcNAc(b1-4)][GlcNAc(b1-2)Man(a1-6)]Man(b1-4)GlcNAc(b1-4)[Fuc(a1-6)]GlcNAc
# How it was run: as §1
# [6] = molecular target: GlcNAc(b1-2)[GlcNAc(b1-4)]Man(a1-3)[GlcNAc(b1-2)Man(a1-6)]Man(b1-4)GlcNAc(b1-4)GlcNAc
# How it was run: as §1
# [7] = molecular target: GlcNAc(b1-2)[GlcNAc(b1-4)]Man(a1-3)[GlcNAc(b1-4)][GlcNAc(b1-2)Man(a1-6)]Man(b1-4)GlcNAc(b1-4)GlcNAc
# How it was run: as §1
# [8] = molecular target: GlcNAc(b1-2)[GlcNAc(b1-4)]Man(a1-3)[GlcNAc(b1-4)][GlcNAc(b1-2)[GlcNAc(b1-6)]Man(a1-6)]Man(b1-4)GlcNAc(b1-4)GlcNAc
# How it was run: as §1
# [9] = molecular target: GlcNAc(b1-2)[GlcNAc(b1-4)]Man(a1-3)[GlcNAc(b1-4)][GlcNAc(b1-2)[GlcNAc(b1-6)]Man(a1-6)]Man(b1-4)GlcNAc(b1-4)[Fuc(a1-6)]GlcNAc
# How it was run: as §1
# [10] = molecular target: GlcNAc(b1-2)[GlcNAc(b1-6)]Man(a1-6)[GlcNAc(b1-2)Man(a1-3)]Man(b1-4)GlcNAc(b1-4)GlcNAc
# How it was run: as §1
# [11] = molecular target: GlcNAc(b1-2)[GlcNAc(b1-6)]Man(a1-6)[GlcNAc(b1-2)Man(a1-3)]Man(b1-4)GlcNAc(b1-4)[Fuc(a1-6)]GlcNAc
# How it was run: as §1
# [12] = molecular target: GlcNAc(b1-2)[GlcNAc(b1-6)]Man(a1-6)[GlcNAc(b1-4)][GlcNAc(b1-2)Man(a1-3)]Man(b1-4)GlcNAc(b1-4)GlcNAc
# How it was run: as §1
# [13] = molecular target: GlcNAc(b1-3)Fuc
# How it was run: as §1
# [14] = molecular target: GlcNAc(b1-3)Gal
# How it was run: as §1
# [15] = molecular target: GlcNAc(b1-3)Gal(b1-3)GalNAc
# How it was run: as §1
# [16] = molecular target: GlcNAc(b1-3)Gal(b1-4)Glc
# How it was run: as §1
# [17] = molecular target: GlcNAc(b1-3)Gal(b1-4)GlcNAc
# How it was run: as §1
# [18] = molecular target: GlcNAc(b1-3)Gal(b1-4)GlcNAc(b1-2)Man(a1-3)[GlcNAc(b1-3)Gal(b1-4)GlcNAc(b1-2)Man(a1-6)]Man(b1-4)GlcNAc(b1-4)GlcNAc
# How it was run: as §1
# [19] = molecular target: GlcNAc(b1-3)Gal(b1-4)GlcNAc(b1-2)Man(a1-3)[GlcNAc(b1-3)Gal(b1-4)GlcNAc(b1-2)Man(a1-6)]Man(b1-4)GlcNAc(b1-4)[Fuc(a1-6)]GlcNAc
# How it was run: as §1
# [20] = molecular target: GlcNAc(b1-3)Gal(b1-4)GlcNAc(b1-2)[GlcNAc(b1-3)Gal(b1-4)GlcNAc(b1-6)]Man(a1-6)[GlcNAc(b1-3)Gal(b1-4)GlcNAc(b1-2)Man(a1-3)]Man(b1-4)GlcNAc(b1-4)GlcNAc
# How it was run: as §1
# [21] = molecular target: GlcNAc(b1-3)Gal(b1-4)GlcNAc(b1-3)Gal(b1-4)GlcNAc
# How it was run: as §1
# [22] = molecular target: GlcNAc(b1-3)Gal(b1-4)GlcNAc(b1-3)Gal(b1-4)GlcNAc(b1-2)Man(a1-3)[GlcNAc(b1-3)Gal(b1-4)GlcNAc(b1-3)Gal(b1-4)GlcNAc(b1-2)Man(a1-6)]Man(b1-4)GlcNAc(b1-4)GlcNAc
# How it was run: as §1
# [23] = molecular target: GlcNAc(b1-3)Gal(b1-4)GlcNAc(b1-3)Gal(b1-4)GlcNAc(b1-2)Man(a1-3)[GlcNAc(b1-3)Gal(b1-4)GlcNAc(b1-3)Gal(b1-4)GlcNAc(b1-2)Man(a1-6)]Man(b1-4)GlcNAc(b1-4)[Fuc(a1-6)]GlcNAc
# How it was run: as §1
# [24] = molecular target: GlcNAc(b1-3)Gal(b1-4)GlcNAc(b1-3)Gal(b1-4)GlcNAc(b1-2)[GlcNAc(b1-3)Gal(b1-4)GlcNAc(b1-3)Gal(b1-4)GlcNAc(b1-6)]Man(a1-6)[GlcNAc(b1-3)Gal(b1-4)GlcNAc(b1-3)Gal(b1-4)GlcNAc(b1-2)Man(a1-3)]Man(b1-4)GlcNAc(b1-4)[Fuc(a1-6)]GlcNAc
# How it was run: as §1
# [25] = molecular target: GlcNAc(b1-3)Gal(b1-4)GlcNAc(b1-3)Gal(b1-4)GlcNAc(b1-3)Gal(b1-4)GlcNAc(b1-2)Man(a1-3)[GlcNAc(b1-3)Gal(b1-4)GlcNAc(b1-3)Gal(b1-4)GlcNAc(b1-3)Gal(b1-4)GlcNAc(b1-2)Man(a1-6)]Man(b1-4)GlcNAc(b1-4)GlcNAc
# How it was run: as §1
# [26] = molecular target: GlcNAc(b1-3)Gal(b1-4)GlcNAc(b1-3)Gal(b1-4)GlcNAc(b1-3)Gal(b1-4)GlcNAc(b1-2)Man(a1-3)[GlcNAc(b1-3)Gal(b1-4)GlcNAc(b1-3)Gal(b1-4)GlcNAc(b1-3)Gal(b1-4)GlcNAc(b1-2)Man(a1-6)]Man(b1-4)GlcNAc(b1-4)[Fuc(a1-6)]GlcNAc
# How it was run: as §1
# [27] = molecular target: GlcNAc(b1-3)Gal(b1-4)GlcNAc(b1-3)Gal(b1-4)GlcNAc(b1-3)Gal(b1-4)GlcNAc(b1-2)[GlcNAc(b1-3)Gal(b1-4)GlcNAc(b1-3)Gal(b1-4)GlcNAc(b1-3)Gal(b1-4)GlcNAc(b1-6)]Man(a1-6)[GlcNAc(b1-3)Gal(b1-4)GlcNAc(b1-3)Gal(b1-4)GlcNAc(b1-3)Gal(b1-4)GlcNAc(b1-2)Man(a1-3)]Man(b1-4)GlcNAc(b1-4)[Fuc(a1-6)]GlcNAc
# How it was run: as §1
# [28] = molecular target: GlcNAc(b1-3)Gal(b1-4)GlcNAc(b1-3)Gal(b1-4)GlcNAc(b1-3)Gal(b1-4)GlcNAc(b1-3)Gal(b1-4)GlcNAc(b1-2)Man(a1-3)[GlcNAc(b1-3)Gal(b1-4)GlcNAc(b1-3)Gal(b1-4)GlcNAc(b1-3)Gal(b1-4)GlcNAc(b1-3)Gal(b1-4)GlcNAc(b1-2)Man(a1-6)]Man(b1-4)GlcNAc(b1-4)GlcNAc
# How it was run: as §1
# [29] = molecular target: GlcNAc(b1-3)Gal(b1-4)GlcNAc(b1-3)Gal(b1-4)GlcNAc(b1-3)Gal(b1-4)GlcNAc(b1-3)Gal(b1-4)GlcNAc(b1-2)Man(a1-3)[GlcNAc(b1-3)Gal(b1-4)GlcNAc(b1-3)Gal(b1-4)GlcNAc(b1-3)Gal(b1-4)GlcNAc(b1-3)Gal(b1-4)GlcNAc(b1-2)Man(a1-6)]Man(b1-4)GlcNAc(b1-4)[Fuc(a1-6)]GlcNAc
# How it was run: as §1
# [30] = molecular target: GlcNAc(b1-3)Gal(b1-4)GlcNAc(b1-3)Gal(b1-4)GlcNAc(b1-3)Gal(b1-4)GlcNAc(b1-3)Gal(b1-4)GlcNAc(b1-2)[GlcNAc(b1-3)Gal(b1-4)GlcNAc(b1-3)Gal(b1-4)GlcNAc(b1-3)Gal(b1-4)GlcNAc(b1-3)Gal(b1-4)GlcNAc(b1-6)]Man(a1-6)[GlcNAc(b1-3)Gal(b1-4)GlcNAc(b1-3)Gal(b1-4)GlcNAc(b1-3)Gal(b1-4)GlcNAc(b1-3)Gal(b1-4)GlcNAc(b1-2)Man(a1-3)]Man(b1-4)GlcNAc(b1-4)[Fuc(a1-6)]GlcNAc
# How it was run: as §1
# [31] = molecular target: GlcNAc(b1-3)Gal(b1-4)GlcNAc(b1-3)Gal(b1-4)GlcNAc(b1-3)GalNAc
# How it was run: as §1
# [32] = molecular target: GlcNAc(b1-3)Gal(b1-4)GlcNAc(b1-3)GalNAc
# How it was run: as §1
# [33] = molecular target: GlcNAc(b1-3)Gal(b1-4)GlcNAc(b1-3)[GlcNAc(b1-3)Gal(b1-4)GlcNAc(b1-3)]GalNAc
# How it was run: as §1
# [34] = molecular target: GlcNAc(b1-3)Gal(b1-4)GlcNAc(b1-6)[Gal(b1-3)]GalNAc
# How it was run: as §1
# [35] = molecular target: GlcNAc(b1-3)Gal(b1-4)GlcNAc(b1-6)[GlcNAc(b1-3)Gal(b1-3)]GalNAc
# How it was run: as §1
# [36] = molecular target: GlcNAc(b1-3)Gal(b1-4)GlcNAc(b1-6)[GlcNAc(b1-3)]Gal(b1-4)GlcNAc
# How it was run: as §1
# [37] = molecular target: GlcNAc(b1-3)GalNAc
# How it was run: as §1
# [38] = molecular target: GlcNAc(b1-3)Man
# How it was run: as §1
# [39] = molecular target: GlcNAc(b1-3)[GlcNAc(b1-4)][GlcNAc(b1-6)]GlcNAc
# How it was run: as §1
# [40] = molecular target: GlcNAc(b1-3)[GlcNAc(b1-6)]Gal(b1-4)GlcNAc
# How it was run: as §1
# [41] = molecular target: GlcNAc(b1-3)[GlcNAc(b1-6)]GalNAc
# How it was run: as §1
# [42] = molecular target: GlcNAc(b1-4)Gal(b1-4)GlcNAc
# How it was run: as §1
# [43] = molecular target: GlcNAc(b1-4)GlcNAc
# How it was run: as §1
# [44] = molecular target: GlcNAc(b1-4)GlcNAc(b1-4)GlcNAc
# How it was run: as §1
# [45] = molecular target: GlcNAc(b1-4)GlcNAc(b1-4)GlcNAc(b1-4)GlcNAc(b1-4)GlcNAc
# How it was run: as §1
binder,measurement,setting,value
PhypaEULS3 (Physcomitrella patens) (protein) MLPVRLHCKADPNFNLAAVPGQGPVMVPFSPNDDFQVWYKDVTMSTRVKDETGSSAFSLINKATGQALRHAPEDLAQCLLADYDSNALDQTVLWTMSEDMGQGYCCIRLASQITRNLDVFRGDKKSGGVKEGSPVITFAWKKQDNQIWKMITAILEQKLISEEDLNSAVDHHHHHH,glycan array binding signal (z-score),[1],-1.03
same,glycan array binding signal (z-score),[2],0.309
same,glycan array binding signal (z-score),[3],0.303
same,glycan array binding signal (z-score),[4],1.08
same,glycan array binding signal (z-score),[5],0.097
same,glycan array binding signal (z-score),[6],0.948
same,glycan array binding signal (z-score),[7],0.758
same,glycan array binding signal (z-score),[8],0.259
same,glycan array binding signal (z-score),[9],-0.705
same,glycan array binding signal (z-score),[10],0.239
same,glycan array binding signal (z-score),[11],-0.207
same,glycan array binding signal (z-score),[12],0.306
same,glycan array binding signal (z-score),[13],-1.99
same,glycan array binding signal (z-score),[14],-0.333
same,glycan array binding signal (z-score),[15],-1.76
same,glycan array binding signal (z-score),[16],-0.901
same,glycan array binding signal (z-score),[17],-1.47
same,glycan array binding signal (z-score),[18],0.401
same,glycan array binding signal (z-score),[19],1.67
same,glycan array binding signal (z-score),[20],0.985
same,glycan array binding signal (z-score),[21],-1.12
same,glycan array binding signal (z-score),[22],1.54
same,glycan array binding signal (z-score),[23],0.296
same,glycan array binding signal (z-score),[24],-1.1
same,glycan array binding signal (z-score),[25],-0.487
same,glycan array binding signal (z-score),[26],-1
same,glycan array binding signal (z-score),[27],-1.61
same,glycan array binding signal (z-score),[28],0.245
same,glycan array binding signal (z-score),[29],-0.426
same,glycan array binding signal (z-score),[30],-1.07
same,glycan array binding signal (z-score),[31],-0.078
same,glycan array binding signal (z-score),[32],-0.682
same,glycan array binding signal (z-score),[33],-1.96
same,glycan array binding signal (z-score),[34],-1.04
same,glycan array binding signal (z-score),[35],0.187
same,glycan array binding signal (z-score),[36],0.033
same,glycan array binding signal (z-score),[37],-0.8
same,glycan array binding signal (z-score),[38],0.008
same,glycan array binding signal (z-score),[39],-0.786
same,glycan array binding signal (z-score),[40],0.482
same,glycan array binding signal (z-score),[41],-1.17
same,glycan array binding signal (z-score),[42],1.55
same,glycan array binding signal (z-score),[43],-0.056
same,glycan array binding signal (z-score),[44],0.294
same,glycan array binding signal (z-score),[45],0.22

# Two entries from above, with bars between the fields.
binder | measurement | setting | value
PhypaEULS3 (Physcomitrella patens) (protein) MLPVRLHCKADPNFNLAAVPGQGPVMVPFSPNDDFQVWYKDVTMSTRVKDETGSSAFSLINKATGQALRHAPEDLAQCLLADYDSNALDQTVLWTMSEDMGQGYCCIRLASQITRNLDVFRGDKKSGGVKEGSPVITFAWKKQDNQIWKMITAILEQKLISEEDLNSAVDHHHHHH | glycan array binding signal (z-score) | [29] | -0.426
same | glycan array binding signal (z-score) | [30] | -1.07
